Reference: patent publication US11278503B2, “Pharmaceutical compositions comprising semifluorinated alkanes for the treatment of contact lense-related conditions” (NOVALIQ GMBH, priority 2017, dated 2022)

How the values were obtained:
[1] = Material compatibility testing: mechanical properties (tensile testing) of lenses exposed to SFA; conditions: Soflens 38 lenses exposed to SFA 7 days; for E-Modulus, Mean / Elongation to break, Mean: mean of 9 samples
[2] = Material compatibility testing: lens parameters (diameter, BCOR, BVP) and physical appearance after immersion in SFA; conditions: for physical appearance / handling of lenses placed or stored in the SFA: Soflens 38 in undiluted SFA

CCCCCCCCC(F)(F)C(F)(F)C(F)(F)C(F)(F)C(F)(F)C(F)(F)F [F6H8, 1-perfluorohexyl-octane]
E-Modulus, Mean [1]: 0.92 MPa | Elongation to break, Mean [1]: 146.35% | E-Modulus ([1]; single samples): 0.65 MPa and 0.63 MPa and 0.70 MPa and 1.07 MPa and 0.98 MPa and 0.89 MPa and 1.11 MPa and 1.14 MPa | optics / BVP measurement directly after exposure ([2]; Soflens 38 after 7 days in SFA and ultrasonic bath, before storage in ISO saline): optics were too blurry | lens surface seen through the lens under fluorescent light ([2]; Soflens 38 after 7 days in SFA, before storage in ISO saline): rippled | physical appearance / handling of lenses placed or stored in the SFA [2]: curl up upon themselves; also recorded: became folded | reversibility of the change in optical quality ([2]; after storage in standard saline (48 hours)): reversible

CCCCCC(F)(F)C(F)(F)C(F)(F)C(F)(F)F [F4H5, 1-perfluorobutyl-pentane]
E-Modulus, Mean [1]: 0.89 MPa | Elongation to break, Mean [1]: 137.74% | physical appearance / handling of lenses placed or stored in the SFA [2]: curl up upon themselves; also recorded: became folded

Where “and” joins values, the source holds several entries; their conditions need not be identical. Equal values may be shown once. Entries after “also recorded” stand apart in the source; their conditions may differ.
